Experimental data published in the supplement of paper PMC10849652.
The other results are listed elsewhere or left out.

Protein sequences, listed by entry. Tags and fused reporters are not part of them. Lines headed by an entry give the natural chain unless they say otherwise; changes in a name come on top.
UniProt Q9ULV4, whole entry, looked up: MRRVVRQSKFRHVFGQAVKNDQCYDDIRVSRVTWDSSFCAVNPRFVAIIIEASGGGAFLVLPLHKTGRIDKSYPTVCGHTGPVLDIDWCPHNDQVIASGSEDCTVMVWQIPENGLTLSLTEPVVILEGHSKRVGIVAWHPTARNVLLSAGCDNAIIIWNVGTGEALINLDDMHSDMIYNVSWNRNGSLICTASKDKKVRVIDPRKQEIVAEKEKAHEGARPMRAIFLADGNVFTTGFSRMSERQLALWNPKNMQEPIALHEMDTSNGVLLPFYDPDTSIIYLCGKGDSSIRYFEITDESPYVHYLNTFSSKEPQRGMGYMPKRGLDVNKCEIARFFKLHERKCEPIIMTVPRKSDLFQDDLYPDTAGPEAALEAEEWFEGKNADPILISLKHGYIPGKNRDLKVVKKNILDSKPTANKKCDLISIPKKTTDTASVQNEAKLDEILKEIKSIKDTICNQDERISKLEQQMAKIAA
UniProt Q9NYJ1, whole entry, looked up: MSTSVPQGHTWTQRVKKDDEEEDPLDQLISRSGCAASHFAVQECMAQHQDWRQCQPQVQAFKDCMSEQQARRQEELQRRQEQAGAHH
UniProt Q5JTJ3: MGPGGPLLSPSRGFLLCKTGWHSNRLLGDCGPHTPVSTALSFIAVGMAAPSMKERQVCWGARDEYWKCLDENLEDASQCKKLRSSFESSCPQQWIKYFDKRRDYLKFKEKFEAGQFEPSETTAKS
UniProt Q9UKF6: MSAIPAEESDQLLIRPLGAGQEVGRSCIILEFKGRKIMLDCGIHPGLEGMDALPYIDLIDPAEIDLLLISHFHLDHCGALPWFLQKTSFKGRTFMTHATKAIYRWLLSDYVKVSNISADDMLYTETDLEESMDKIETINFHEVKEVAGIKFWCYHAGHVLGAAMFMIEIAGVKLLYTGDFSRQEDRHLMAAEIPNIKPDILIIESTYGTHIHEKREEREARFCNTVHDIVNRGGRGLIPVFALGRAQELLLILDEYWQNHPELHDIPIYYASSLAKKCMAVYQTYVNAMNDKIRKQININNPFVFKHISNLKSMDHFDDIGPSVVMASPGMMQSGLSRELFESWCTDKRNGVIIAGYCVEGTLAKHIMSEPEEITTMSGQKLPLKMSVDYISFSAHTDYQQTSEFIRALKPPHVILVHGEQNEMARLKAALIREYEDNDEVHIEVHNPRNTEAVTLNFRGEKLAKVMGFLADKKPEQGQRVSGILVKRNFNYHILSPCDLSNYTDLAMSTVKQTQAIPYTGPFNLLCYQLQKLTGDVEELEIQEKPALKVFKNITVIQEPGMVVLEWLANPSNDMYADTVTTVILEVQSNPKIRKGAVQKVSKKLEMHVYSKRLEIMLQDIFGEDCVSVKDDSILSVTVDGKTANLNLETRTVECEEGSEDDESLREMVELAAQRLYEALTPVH
UniProt Q9NX08, whole entry, looked up: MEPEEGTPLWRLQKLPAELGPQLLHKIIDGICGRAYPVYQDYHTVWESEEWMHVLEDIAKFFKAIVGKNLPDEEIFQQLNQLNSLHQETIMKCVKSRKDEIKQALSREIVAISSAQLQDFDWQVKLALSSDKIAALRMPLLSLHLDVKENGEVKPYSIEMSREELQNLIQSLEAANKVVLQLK
UniProt Q9GZQ3, whole entry, looked up: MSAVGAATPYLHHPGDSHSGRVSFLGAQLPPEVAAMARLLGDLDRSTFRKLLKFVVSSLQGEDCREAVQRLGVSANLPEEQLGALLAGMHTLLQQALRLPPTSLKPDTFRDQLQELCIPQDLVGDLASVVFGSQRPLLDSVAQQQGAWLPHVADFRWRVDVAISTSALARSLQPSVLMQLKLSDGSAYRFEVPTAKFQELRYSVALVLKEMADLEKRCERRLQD
UniProt Q9GZY4: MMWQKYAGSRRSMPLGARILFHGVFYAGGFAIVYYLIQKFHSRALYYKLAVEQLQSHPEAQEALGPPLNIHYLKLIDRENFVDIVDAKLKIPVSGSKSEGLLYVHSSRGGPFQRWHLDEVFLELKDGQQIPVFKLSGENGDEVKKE
UniProt Q5HYK3: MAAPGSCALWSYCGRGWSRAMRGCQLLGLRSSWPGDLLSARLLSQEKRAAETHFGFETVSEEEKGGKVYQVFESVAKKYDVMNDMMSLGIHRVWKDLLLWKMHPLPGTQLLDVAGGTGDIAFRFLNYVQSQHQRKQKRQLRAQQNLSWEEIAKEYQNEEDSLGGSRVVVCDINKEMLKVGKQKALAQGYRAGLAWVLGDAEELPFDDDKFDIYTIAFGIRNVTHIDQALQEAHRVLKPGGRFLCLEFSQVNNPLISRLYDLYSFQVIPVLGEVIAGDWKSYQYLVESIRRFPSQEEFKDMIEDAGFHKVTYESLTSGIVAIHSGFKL
UniProt Q99829: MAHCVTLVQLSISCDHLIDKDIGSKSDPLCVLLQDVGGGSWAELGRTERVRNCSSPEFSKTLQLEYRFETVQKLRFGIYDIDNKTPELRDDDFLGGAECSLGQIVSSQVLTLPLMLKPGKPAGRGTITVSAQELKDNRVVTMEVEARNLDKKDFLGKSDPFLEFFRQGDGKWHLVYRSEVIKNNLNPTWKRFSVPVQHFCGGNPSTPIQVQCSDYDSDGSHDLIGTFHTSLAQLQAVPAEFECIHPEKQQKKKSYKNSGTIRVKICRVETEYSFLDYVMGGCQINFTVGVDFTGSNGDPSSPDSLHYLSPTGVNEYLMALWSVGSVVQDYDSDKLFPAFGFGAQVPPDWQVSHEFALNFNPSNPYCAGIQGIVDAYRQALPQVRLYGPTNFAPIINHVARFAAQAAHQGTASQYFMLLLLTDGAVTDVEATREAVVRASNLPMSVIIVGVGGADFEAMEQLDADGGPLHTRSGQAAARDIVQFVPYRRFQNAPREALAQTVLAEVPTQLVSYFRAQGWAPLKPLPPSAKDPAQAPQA
UniProt Q9UIV1, whole entry, looked up: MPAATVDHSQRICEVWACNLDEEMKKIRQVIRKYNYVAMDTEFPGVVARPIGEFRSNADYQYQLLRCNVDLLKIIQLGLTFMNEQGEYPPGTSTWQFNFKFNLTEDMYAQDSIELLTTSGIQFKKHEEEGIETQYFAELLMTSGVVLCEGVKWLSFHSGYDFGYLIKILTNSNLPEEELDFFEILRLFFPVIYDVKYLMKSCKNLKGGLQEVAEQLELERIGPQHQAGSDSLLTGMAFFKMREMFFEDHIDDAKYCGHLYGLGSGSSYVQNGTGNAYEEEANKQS
UniProt Q6P4Q7: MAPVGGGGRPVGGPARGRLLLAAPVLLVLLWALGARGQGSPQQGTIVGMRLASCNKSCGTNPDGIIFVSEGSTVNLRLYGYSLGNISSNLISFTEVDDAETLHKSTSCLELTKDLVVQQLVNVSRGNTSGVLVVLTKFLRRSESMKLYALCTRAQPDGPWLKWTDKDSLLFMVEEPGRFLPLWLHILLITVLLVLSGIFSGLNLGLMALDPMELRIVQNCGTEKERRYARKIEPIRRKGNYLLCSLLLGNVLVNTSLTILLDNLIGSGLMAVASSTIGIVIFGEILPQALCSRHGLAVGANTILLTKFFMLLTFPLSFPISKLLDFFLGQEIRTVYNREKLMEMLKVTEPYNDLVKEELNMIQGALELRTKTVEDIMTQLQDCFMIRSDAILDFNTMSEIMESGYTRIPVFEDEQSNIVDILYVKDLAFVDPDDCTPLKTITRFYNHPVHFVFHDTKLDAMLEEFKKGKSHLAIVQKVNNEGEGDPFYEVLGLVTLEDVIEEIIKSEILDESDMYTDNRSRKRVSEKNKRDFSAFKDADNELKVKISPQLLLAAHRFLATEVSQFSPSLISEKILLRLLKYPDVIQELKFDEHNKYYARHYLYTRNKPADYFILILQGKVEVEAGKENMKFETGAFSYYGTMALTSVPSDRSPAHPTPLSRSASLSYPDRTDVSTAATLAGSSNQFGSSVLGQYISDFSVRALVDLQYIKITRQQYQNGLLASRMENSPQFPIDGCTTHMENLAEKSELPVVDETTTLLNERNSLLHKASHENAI
UniProt Q96MW5: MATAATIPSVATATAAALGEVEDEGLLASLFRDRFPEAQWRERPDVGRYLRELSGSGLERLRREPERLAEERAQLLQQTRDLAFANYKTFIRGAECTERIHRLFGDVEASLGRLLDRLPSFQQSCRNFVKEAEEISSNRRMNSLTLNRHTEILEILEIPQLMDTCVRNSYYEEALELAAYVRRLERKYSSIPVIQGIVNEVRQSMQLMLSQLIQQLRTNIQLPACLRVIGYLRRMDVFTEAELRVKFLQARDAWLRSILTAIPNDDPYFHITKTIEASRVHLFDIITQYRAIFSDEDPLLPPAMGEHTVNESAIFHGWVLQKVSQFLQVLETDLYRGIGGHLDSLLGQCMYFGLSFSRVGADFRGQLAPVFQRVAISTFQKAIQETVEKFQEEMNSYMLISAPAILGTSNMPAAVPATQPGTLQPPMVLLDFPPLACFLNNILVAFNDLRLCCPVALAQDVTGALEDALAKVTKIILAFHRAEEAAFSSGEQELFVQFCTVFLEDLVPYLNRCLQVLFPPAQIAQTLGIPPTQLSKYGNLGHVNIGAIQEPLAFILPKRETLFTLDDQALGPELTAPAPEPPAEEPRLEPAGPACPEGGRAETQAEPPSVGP
UniProt O43405: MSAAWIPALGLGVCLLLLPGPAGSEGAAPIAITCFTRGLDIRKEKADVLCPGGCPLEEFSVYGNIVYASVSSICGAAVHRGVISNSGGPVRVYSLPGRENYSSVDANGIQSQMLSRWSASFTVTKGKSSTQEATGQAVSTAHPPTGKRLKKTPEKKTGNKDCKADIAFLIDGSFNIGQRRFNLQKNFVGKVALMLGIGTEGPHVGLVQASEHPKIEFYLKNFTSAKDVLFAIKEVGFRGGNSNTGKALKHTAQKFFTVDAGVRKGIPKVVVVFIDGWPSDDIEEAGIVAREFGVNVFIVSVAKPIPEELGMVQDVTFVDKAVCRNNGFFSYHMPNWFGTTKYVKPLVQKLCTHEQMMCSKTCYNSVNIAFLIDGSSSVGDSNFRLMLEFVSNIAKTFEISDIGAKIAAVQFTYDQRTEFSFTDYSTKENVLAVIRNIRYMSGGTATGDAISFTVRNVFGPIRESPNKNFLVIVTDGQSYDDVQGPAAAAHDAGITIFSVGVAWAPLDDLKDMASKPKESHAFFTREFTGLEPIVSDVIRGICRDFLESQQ
UniProt Q8IYK4: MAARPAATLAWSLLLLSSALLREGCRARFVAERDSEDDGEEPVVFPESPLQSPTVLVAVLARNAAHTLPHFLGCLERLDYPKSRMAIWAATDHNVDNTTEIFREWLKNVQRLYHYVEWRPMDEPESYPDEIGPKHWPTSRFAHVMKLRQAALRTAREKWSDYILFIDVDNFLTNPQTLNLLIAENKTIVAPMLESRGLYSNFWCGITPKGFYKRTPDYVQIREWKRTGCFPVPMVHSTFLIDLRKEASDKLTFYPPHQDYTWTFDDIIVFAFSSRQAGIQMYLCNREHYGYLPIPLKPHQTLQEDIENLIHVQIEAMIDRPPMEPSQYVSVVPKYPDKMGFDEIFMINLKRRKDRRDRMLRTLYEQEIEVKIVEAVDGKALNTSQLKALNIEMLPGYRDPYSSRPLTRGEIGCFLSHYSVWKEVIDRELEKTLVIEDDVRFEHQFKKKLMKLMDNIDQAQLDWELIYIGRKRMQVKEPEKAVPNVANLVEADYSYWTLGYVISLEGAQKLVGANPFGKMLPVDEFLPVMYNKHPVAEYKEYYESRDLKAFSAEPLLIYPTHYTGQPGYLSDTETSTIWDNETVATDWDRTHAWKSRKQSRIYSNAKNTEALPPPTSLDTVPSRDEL
UniProt Q9Y678: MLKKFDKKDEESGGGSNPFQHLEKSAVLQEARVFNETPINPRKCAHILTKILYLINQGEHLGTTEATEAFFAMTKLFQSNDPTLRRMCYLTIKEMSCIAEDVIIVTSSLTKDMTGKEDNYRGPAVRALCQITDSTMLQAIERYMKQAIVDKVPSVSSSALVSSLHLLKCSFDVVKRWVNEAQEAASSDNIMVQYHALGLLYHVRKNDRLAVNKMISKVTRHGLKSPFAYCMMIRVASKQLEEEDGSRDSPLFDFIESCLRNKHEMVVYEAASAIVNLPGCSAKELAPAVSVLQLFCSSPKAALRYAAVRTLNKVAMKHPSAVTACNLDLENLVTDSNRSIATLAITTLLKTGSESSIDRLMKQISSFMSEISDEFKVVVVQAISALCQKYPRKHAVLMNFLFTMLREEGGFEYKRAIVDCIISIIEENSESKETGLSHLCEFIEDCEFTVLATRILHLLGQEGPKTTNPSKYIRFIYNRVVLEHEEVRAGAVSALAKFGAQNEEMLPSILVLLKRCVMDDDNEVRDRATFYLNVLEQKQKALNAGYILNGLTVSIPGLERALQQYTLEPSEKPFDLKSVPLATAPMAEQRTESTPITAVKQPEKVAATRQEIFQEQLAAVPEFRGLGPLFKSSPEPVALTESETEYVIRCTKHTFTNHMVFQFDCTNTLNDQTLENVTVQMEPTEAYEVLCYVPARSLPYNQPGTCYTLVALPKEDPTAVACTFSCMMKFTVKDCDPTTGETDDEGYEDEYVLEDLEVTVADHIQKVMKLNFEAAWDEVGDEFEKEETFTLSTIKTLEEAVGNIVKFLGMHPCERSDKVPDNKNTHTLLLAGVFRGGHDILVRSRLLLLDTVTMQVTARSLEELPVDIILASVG

Assays:
Test in all cases: log2 fold change, soluble protein after heating vs DMSO (PISA); higher = thermal stabilisation; K562 lysate, 10 uM; active = over 0.2 and 3.5 SD of the protein, either way, in both replicates (recomputed)
erlotinib = compound: C#Cc1cccc(Nc2ncnc3cc(OCCOC)c(OCCOC)cc23)c1 [erlotinib]
Method in brief: (§1)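 Dounce homogenisation of K562 pellets in PBS pH 7.4 with 1 mM MgCl2 produced a crude extract, used at 1 mg/mL protein. Exposure to 10 μM compound lasted 30 min, and aliquots were then heated for 3 min across 48°C-58°C, pooled and brought to 0.5% NP-40 at 4°C. The supernatant after 21,000xg for 90 min was quantified by TMTpro 16plex LC-MS/MS with channel sums equalised. Duplicate values are given as log-two fold change in thermal stability relative to solvent controls.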

[1] = compound: C/C(=N\NC(=O)C1=CC(=CC=C1)S(=O)(=O)N2CCOCC2)/C3=C(C=CC(=C3)Cl)O
Method in brief: as §1

[2] = compound: C1=CC(=CC=C1C2=NC3=C(N2)C=C(C=C3)C(=O)N)OC4=CC=C(C=C4)Cl
Method in brief: as §1

[3] = compound: C1=CC2=C(C=CC(=C2)/C=C\3/C(=O)NC(=NCC4=CC=CS4)S3)N=C1
Method in brief: as §1

[4] = compound: C1=CC2=NC=CN=C2C=C1/C=C/3\C(=O)NC(=O)S3
Method in brief: as §1

[5] = compound: C1=CC=C(C=C1)C2=NC(=C(N2)C3=CC=NC=C3)C4=CC(=C(C=C4)Cl)O
Method in brief: as §1

[6] = compound: C1=CC=C2C(=C1)C3=NNC4=CC=CC(=C43)C2=O
Method in brief: as §1

[7] = compound: C1CCN(C1)C(=O)NC2=CC=CC(=C2)NC3=NC=C(C(=N3)NCCC4=CN=CN4)Br
Method in brief: as §1

[8] = compound: C1CN(CCC1(CC2=CC=C(C=C2)Cl)N)C3=NC=NC4=C3C=CN4
Method in brief: as §1

IRAK-1-4 Inhibitor I = compound: C1COCCN1CCN2C3=CC=CC=C3N=C2NC(=O)C4=CC(=CC=C4)[N+](=O)[O-] [IRAK-1-4 Inhibitor I]
Method in brief: as §1

ibrutinib = compound: C=CC(=O)N1CCC[C@@H](n2nc(-c3ccc(Oc4ccccc4)cc3)c3c(N)ncnc32)C1 [ibrutinib]
Method in brief: as §1

[9] = compound: CC(=O)c1cnc2ccc(-c3cc(Cl)c(O)c(Cl)c3)nc2c1N[C@H]1CC[C@H](CN(C)C)CC1
Method in brief: as §1

ralimetinib = compound: CC(C)(C)Cn1c(N)nc2ccc(-c3[nH]c(C(C)(C)C)nc3-c3ccc(F)cc3)nc21 [ralimetinib]
Method in brief: as §1

[10] = compound: CC(C)(O)CC(=O)NCCn1ccc2ncnc(Nc3ccc(Oc4cccc(C(F)(F)F)c4)c(Cl)c3)c21
Method in brief: as §1

[11] = compound: CC(C)C1=C2N=C(C=C(N2N=C1)NCC3=CC=CC=C3)NCCCCCCN
Method in brief: as §1

[12] = compound: CC1=C(C(CC(=O)N1)C2=CC=C(C=C2)C(F)(F)F)C(=O)NC3=C(C=C4C(=C3)C=NN4)F
Method in brief: as §1

[13] = compound: CC1=C(C2=C(C=C1)C(=O)C3=CC=CC=C3N2CCCN)C
Method in brief: as §1

[14] = compound: CC1=C(C=C(C=C1)NC(=O)C2=CC(=CC=C2)C(C)(C)C#N)NC3=CC4=C(C=C3)N=CN(C4=O)C
Method in brief: as §1

[15] = compound: CC1=C(C=C(C=C1)NC(=O)C2=CC(=CC=C2)N(C)C)NC(=O)C3=CC=C(C=C3)O
Method in brief: as §1

[16] = compound: CC1=CC=C(C=C1)SC2=C3C=C(SC3=CN=C2)C(=O)N
Method in brief: as §1

Measured: log2 fold change

CORO1C isoform 3 (UniProt Q9ULV4)
inactive: erlotinib 0.015 | [1] -0.062 | [2] 0.054 | [3] -0.01 | [4] -0.023 | [5] -0.007 | [6] -0.005 | [7] -0.027 | [8] -0.004 | IRAK-1-4 Inhibitor I -0.008 | ibrutinib -0.003 | [9] -0.029 | ralimetinib -0.011 | [10] 0 | [11] 0.02 | [12] -0.011 | [13] 0.016 | [14] 0.008 | [15] 0.016 | [16] 0.005

COA4 isoform 2 (UniProt Q9NYJ1)
inactive: erlotinib 0.105 | [1] 0.041 | [2] -0.038 | [3] 0.089 | [4] -0.048 | [5] 0.019 | [6] 0.035 | [7] -0.079 | [8] 0.047 | IRAK-1-4 Inhibitor I -0.035 | ibrutinib -0.016 | [9] -0.109 | ralimetinib -0.015 | [10] 0.022 | [11] -0.064 | [12] 0.024 | [13] -0.024 | [14] -0.001 | [15] 0.025 | [16] 0.072

COA6 isoform 2 (UniProt Q5JTJ3)
inactive: erlotinib 0.025 | [1] 0.098 | [2] -0.012 | [3] -0.038 | [4] 0.076 | [5] 0.044 | [6] -0.069 | [7] 0.045 | [8] 0.085 | IRAK-1-4 Inhibitor I -0.162 | ibrutinib 0 | [9] -0.001 | ralimetinib -0.249 | [10] -0.065 | [11] -0.047 | [12] 0.136 | [13] 0.019 | [14] -0.012 | [15] 0.052 | [16] -0.032

CPSF3 (UniProt Q9UKF6)
inactive: erlotinib -0.04 | [1] -0.035 | [2] -0.038 | [3] 0.029 | [4] 0.027 | [5] -0.01 | [6] 0.034 | [7] 0.037 | [8] -0.001 | IRAK-1-4 Inhibitor I -0.01 | ibrutinib 0.014 | [9] 0.021 | ralimetinib 0.042 | [10] 0.007 | [11] -0.037 | [12] 0.005 | [13] 0.017 | [14] -0.032 | [15] 0.038 | [16] 0.012

COMMD8 (UniProt Q9NX08)
inactive: erlotinib 0.102 | [1] -0.049 | [2] -0.009 | [3] 0.145 | [4] -0.05 | [5] -0.041 | [6] -0.077 | [7] -0.036 | [8] -0.026 | IRAK-1-4 Inhibitor I -0.016 | ibrutinib 0.22 | [9] -0.064 | ralimetinib 0.03 | [10] -0.018 | [11] 0.006 | [12] -0.002 | [13] -0.026 | [14] 0.077 | [15] 0.042 | [16] 0.068

COMMD5 (UniProt Q9GZQ3)
inactive: erlotinib 0.03 | [1] 0.003 | [2] -0.009 | [3] -0.008 | [4] 0.048 | [5] -0.028 | [6] -0.031 | [7] 0.08 | [8] -0.151 | IRAK-1-4 Inhibitor I -0.007 | ibrutinib 0.031 | [9] -0.009 | ralimetinib 0.016 | [10] -0.053 | [11] -0.036 | [12] 0.031 | [13] -0.025 | [14] 0.013 | [15] -0.008 | [16] -0.005

COA1 (UniProt Q9GZY4)
inactive: erlotinib 0.039 | [1] -0.059 | [2] -0.091 | [3] -0.028 | [4] -0.038 | [5] 0.012 | [6] -0.007 | [7] -0.031 | [8] 0.015 | IRAK-1-4 Inhibitor I 0.031 | ibrutinib -0.028 | [9] -0.001 | ralimetinib 0.005 | [10] -0.049 | [11] 0.022 | [12] -0.001 | [13] 0.04 | [14] -0.018 | [15] 0.013 | [16] 0.008

COQ5 (UniProt Q5HYK3)
inactive: erlotinib -0.012 | [1] -0.017 | [2] 0.013 | [3] 0.003 | [4] 0.028 | [5] -0.008 | [6] 0.034 | [7] -0.034 | [8] 0.003 | IRAK-1-4 Inhibitor I 0.038 | ibrutinib -0.004 | [9] -0.021 | ralimetinib 0.023 | [10] -0.067 | [11] 0.06 | [12] 0.018 | [13] 0.07 | [14] 0.028 | [15] 0.058 | [16] -0.05

CPNE1 (UniProt Q99829)
inactive: erlotinib 0.008 | [1] 0.002 | [2] 0.014 | [3] 0.004 | [4] -0.006 | [5] -0.006 | [6] 0.04 | [7] -0.03 | [8] 0.025 | IRAK-1-4 Inhibitor I 0.022 | ibrutinib 0.007 | [9] 0 | ralimetinib 0.017 | [10] -0.032 | [11] 0.014 | [12] -0.035 | [13] -0.011 | [14] 0.004 | [15] 0.032 | [16] 0.009

CNOT7 (UniProt Q9UIV1)
inactive: erlotinib 0.016 | [1] -0.014 | [2] 0.001 | [3] 0.03 | [4] -0.019 | [5] -0.017 | [6] -0.018 | [7] 0.001 | [8] 0.01 | IRAK-1-4 Inhibitor I -0.004 | ibrutinib -0.011 | [9] 0.032 | ralimetinib 0.007 | [10] -0.021 | [11] 0.022 | [12] -0.005 | [13] 0.037 | [14] -0.031 | [15] 0.03 | [16] -0.006

2 neighbouring entries out of the list so far:
COMMD5 (UniProt Q9GZQ3)
inactive: erlotinib 0.03 | [1] 0.003 | [2] -0.009 | [3] -0.008 | [4] 0.048 | [5] -0.028 | [6] -0.031 | [7] 0.08 | [8] -0.151 | IRAK-1-4 Inhibitor I -0.007 | ibrutinib 0.031 | [9] -0.009 | ralimetinib 0.016 | [10] -0.053 | [11] -0.036 | [12] 0.031 | [13] -0.025 | [14] 0.013 | [15] -0.008 | [16] -0.005

COA1 (UniProt Q9GZY4)
inactive: erlotinib 0.039 | [1] -0.059 | [2] -0.091 | [3] -0.028 | [4] -0.038 | [5] 0.012 | [6] -0.007 | [7] -0.031 | [8] 0.015 | IRAK-1-4 Inhibitor I 0.031 | ibrutinib -0.028 | [9] -0.001 | ralimetinib 0.005 | [10] -0.049 | [11] 0.022 | [12] -0.001 | [13] 0.04 | [14] -0.018 | [15] 0.013 | [16] 0.008

The results go on:

CNNM4 (UniProt Q6P4Q7)
inactive: erlotinib -0.07 | [1] 0.08 | [2] -0.074 | [3] 0.048 | [4] 0.017 | [5] -0.079 | [6] -0.033 | [7] 0.05 | [8] 0.157 | IRAK-1-4 Inhibitor I -0.032 | ibrutinib 0.039 | [9] -0.034 | ralimetinib 0.124 | [10] -0.079 | [11] 0.035 | [12] -0.248 | [13] -0.017 | [14] 0.131 | [15] 0.007 | [16] -0.002

COG8 (UniProt Q96MW5)
inactive: erlotinib -0.097 | [1] 0.006 | [2] -0.065 | [3] 0.026 | [4] 0.05 | [5] 0.063 | [6] 0 | [7] 0.052 | [8] -0.011 | IRAK-1-4 Inhibitor I 0.01 | ibrutinib 0.009 | [9] 0.015 | ralimetinib 0.034 | [10] -0.03 | [11] 0.054 | [12] 0.044 | [13] -0.049 | [14] -0.087 | [15] 0.033 | [16] 0.003

COCH (UniProt O43405)
inactive: erlotinib -0.032 | [1] 0.003 | [2] 0.065 | [3] 0.023 | [4] -0.055 | [5] 0.04 | [6] -0.005 | [7] -0.082 | [8] 0.125 | IRAK-1-4 Inhibitor I 0.002 | ibrutinib 0.152 | [9] -0.001 | ralimetinib -0.024 | [10] -0.114 | [11] -0.025 | [12] -0.043 | [13] -0.025 | [14] -0.01 | [15] 0.038 | [16] 0.021

COLGALT2 (UniProt Q8IYK4)
inactive: erlotinib -0.004 | [1] -0.051 | [2] -0.03 | [3] 0.012 | [4] 0 | [5] -0.006 | [6] -0.013 | [7] -0.022 | [8] -0.006 | IRAK-1-4 Inhibitor I -0.026 | ibrutinib 0.033 | [9] 0.064 | ralimetinib 0.006 | [10] 0.027 | [11] -0.003 | [12] 0.011 | [13] -0.018 | [14] -0.092 | [15] -0.005 | [16] 0.037

CNOT1 (UniProt A5YKK6)
inactive: erlotinib 0.006 | [1] 0.074 | [2] 0.016 | [3] -0.022 | [4] 0.009 | [5] -0.009 | [6] -0.028 | [7] -0.016 | [8] -0.011 | IRAK-1-4 Inhibitor I -0.001 | ibrutinib -0.012 | [9] 0.009 | ralimetinib 0.014 | [10] -0.013 | [11] -0.013 | [12] 0.007 | [13] 0.002 | [14] 0.003 | [15] 0.018 | [16] 0

COPG1 (UniProt Q9Y678)
inactive: erlotinib 0.006 | [1] -0.021 | [2] -0.002 | [3] -0.008 | [4] 0.005 | [5] 0.006 | [6] 0.002 | [7] -0.026 | [8] 0.01 | IRAK-1-4 Inhibitor I -0.001 | ibrutinib 0.007 | [9] -0.001 | ralimetinib -0.003 | [10] -0.011 | [11] -0.018 | [12] 0 | [13] 0.003 | [14] 0.008 | [15] 0 | [16] -0.003
